# Assay results

Data taken from PubChem BioAssay AID1159506, deposited by NCATS (2015).

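Luminescence from an EWS-FLI1 target-promoter (NR0B1) reporter, set against a CMV-promoter reporter, two days after silencing single genes in TC32 Ewing sarcoma cells. Each siRNA was applied at 20 nM. A z-score of the log NR0B1-over-CMV signal, less the median of siRNAs with the same seed; more negative means a stronger specific loss of the NR0B1 reporter.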

The strongest results of the screen are mostly left out here. Sequences are the guide (antisense) strand, without overhang.

strand,gene,seed-corrected z-score
UAUUUGAGGUCGACAAAGC,FRG1JP,0.1518
AAAUAUCCCAGGACCUUGU,ASIC3,0.5597
UUGAGUCCCACUCUGACUG,DCAF4L2,-0.4787
UAAAUGGAGGCCGCAAUCA,EMP2,-0.236
UUUAAUGACAUACUGCUUU,ZNF146,0.3197
UGCUGUCCCUCCAUGAUGG,GLOD5,-0.1822
AUAAUCUCAGUAGGUGUGG,MORF4L2,1.34
UAUCUUUAGAUACUCUUGC,SAAL1,-0.1479
UAUGAUCUCAGAAUUUUUC,GLYATL1P4,-0.07945
AAACCAAUCAUGAUGCGGC,WDR19,-0.3727
UAAUUGUUGGGAGCUUAGU,TOMM20,1.073
UAGGUGAUUAGCAUGUUGG,MAP3K12,-1.73
UUUCAGACCAGAAUCCUUC,ACSL1,-0.217
AUGCGUAACAUCAGGAUCU,PHKG2,0.216
UCUUUAUCCACGUCUGAGU,SSSCA1,0.09512
UGAGUGUUCCUUGUCAUCC,CFB,-0.8235
AGAUUUAUGAUAUAGAUGC,RPSAP12,1.023
UUACAUGUCGCACGUCUCU,DEFB4A,-0.1218
UCCAGGUAAAUAUGUCCUG,MYT1L-AS1,-0.4465
UCCUCGAUACGGAAGGGUC,C14orf178,-0.5047
UCCGGGUGCAUCUCUGUCU,COLCA2,0.2096
AUAGUGGAGCCGAGGAUGC,NEURL1,0.2282
UUCUAUUGAAGACCGCUGG,KHDC3L,1.178
UACACCAAAAGCAACUUGG,FBXW8,0.7517
UUCGAAAUAAUGAUCGCCU,DUSP12,-0.1335
UGUUGAAUGAGAUCAGAAG,ZNF571,0.32
UUCCGACCACUCUUUGCCG,HOXA10,-0.5477
UAAAGGACGAGGGUCUCUC,CYP20A1,0.05627
UAAGAAUGCACAGUUGUUC,RAP1B,-0.04751
UUGAGUUAAAUGAGAAGUC,NKAIN1,0.02236
UUCUGUCGAACUGCUGUUC,TMEM175,-0.09544
UUGCCUAUUAGUCCAUCUC,COL4A6,-0.04498
AUUCUUUGUAGAUCAGCUC,PDE2A,-0.9288
UCUUUGCAGAAAGCCGUCC,GLRA2,-0.5495
AAAGUAAUAGUCAAUGGGC,AR,-0.2369
UCGGUGUGCAGGUCAAUGG,MEN1,-0.04215
UUGUCCACCACUCGUACCC,MRPL14,-0.05292
AUAGGAUAUAAGAAUAAGG,OR2W1,1.141
UCUGAUUUCUCAUAGCUGG,FCER1G,0.4706
UCUCGGUGAACAAACUUAC,MUSK,-0.06183
UAUCCUUCAACUCGCCUUC,ANAPC5,-0.2616
UACGUGAUCAUCAGGAGCG,TMEM80,-1.08
UUGGGAAUGAUUACUUGAG,HOMER2,0.5025
UUCCAUGCCGUUCAGAUCU,LOC645357,1.527
UCAGGUUUAAACCAAAUCA,SOCS3,-0.8061
UAUUUGAACUUCUUCUGCU,P2RX1,0.6523
ACAGUUAUCCGACUCCAUC,SQSTM1,0.1888
AUCAUAUUGAGGAGUUUGC,XCR1,0.2914
UCUGUGUCCAGGCUAUGCA,FLT3LG,-0.2871
UGACAGGCAGUAGAUGGGC,UBTD1,-1.491
UGAAAAGUGAGCAGGGAGC,INHBE,-0.271
AUACCUAUAUAAGCAGUCC,CUL2,0.86
UACUUGACGGUGUCGUUCU,PROKR1,0.1842
UGUAAUAAUAGCUGUUAUC,WDR41,1.31
UUUCUAACCGGAGAAUUGC,LSM4,-1.704
UGUAGUUUCAAGUAUGUCU,RMDN1,-0.8055
AUAGCAACUACAGCCUUCC,FAM21FP,1.339
UCAAGUGAUCUAUCAGUGG,AADAC,0.2787
UGUAUAGAACUUGAUGUGC,SLCO2A1,-0.02387
UUAUCCAUCUCUUUUCGGC,MYO18B,0.8899

Repeated from the top, 4 entries:

strand	gene	seed-corrected z-score
UAUUUGAGGUCGACAAAGC	FRG1JP	0.1518
AAAUAUCCCAGGACCUUGU	ASIC3	0.5597
UUGAGUCCCACUCUGACUG	DCAF4L2	-0.4787
UAAAUGGAGGCCGCAAUCA	EMP2	-0.236